# Reference: the supplement of paper PMC11409438
# This is one part of the list. Many values rest on one well or one pass, so single values are uncertain.
# Test system: Caenorhabditis elegans ST65 (ncIs13[ajm-1::GFP])
# Assay: 'Larvae/adult' ratio (MetaXpress pharynx counts; minimum value 1, so it appears to include adults; growth inhibition read-out)
# Settings: 10 µM; exposure time: 4-5 days from L1 at 20°C
row,Compound,'Larvae/adult' ratio
1,CNC(=O)c1cccc(-c2ccc3c(N4CCOC[C@@H]4C)nc(N4CCOC[C@@H]4C)nc3n2)c1 [Vistusertib (AZD2014)],3.6
2,CC(C)C[C@H](NC(=O)[C@@H](Cc1cccc2ccccc12)NC(=O)[C@H](Cc1ccc(O)cc1)NC(=O)[C@H](CO)NC(=O)[C@H](Cc1c[nH]c2ccccc12)NC(=O)[C@H](Cc1cnc[nH]1)NC(=O)[C@@H]1CCC(=O)N1)C(=O)N[C@@H](CCCNC(=N)N)C(=O)N1CCC[C@H]1C(=O)NCC(N)=O [Nafarelin Acetate],2.3
3,"C=CC(=O)Nc1cccc(Nc2nc(Nc3ccc(OCCOC)cc3)ncc2F)c1 [Spebrutinib (CC-292, AVL-292)]",1.88
4,COC(=O)c1ccc2c(c1)[nH]c1ncnc(NCCCN3CCCCC3)c12,2.17
5,Cc1cccc(-c2nn3c(c2-c2ccnc4ccc(C(N)=O)cc24)CCC3)n1,1.74
6,CCNC(=O)CCC/C=C\C[C@@H]1[C@@H](/C=C/[C@@H](O)CCc2ccccc2)[C@H](O)C[C@@H]1O [Bimatoprost],1.57
7,CNC(=O)c1ccc(N2C(=S)N(c3ccc(C#N)c(C(F)(F)F)c3)C(=O)C2(C)C)cc1F [Enzalutamide (MDV3100)],3.89
8,FC(F)(F)c1ccc(/C=C/c2nc(COc3ccc(CCCCn4ccnn4)cc3)co2)cc1 [Mubritinib (TAK 165)],2.45
9,CC1(C)NC(=O)N(c2ccc([N+](=O)[O-])c(C(F)(F)F)c2)C1=O [Nilutamide],3.82
10,CC[C@H](C)C(=O)O[C@H]1C[C@@H](C)C=C2C=C[C@H](C)[C@H](CC[C@@H]3C[C@@H](O)CC(=O)O3)[C@H]21 [Lovastatin],2.23

# Given tab-delimited: part of the list above
row	Compound	'Larvae/adult' ratio
8	FC(F)(F)c1ccc(/C=C/c2nc(COc3ccc(CCCCn4ccnn4)cc3)co2)cc1 [Mubritinib (TAK 165)]	2.45
9	CC1(C)NC(=O)N(c2ccc([N+](=O)[O-])c(C(F)(F)F)c2)C1=O [Nilutamide]	3.82
